Measurements: publication PMC10717271
These are yes or no findings as the source states them, for the method shown. Binding seen in cells or lysates may run through a third protein. Some results given as binding are weak or reduced against the parent protein; the word gives no strength. Tags and fused reporters may be left off the sequences shown.

By UniProt entry, the sequences of proteins in these tests, tags left out.
UniProt P01106: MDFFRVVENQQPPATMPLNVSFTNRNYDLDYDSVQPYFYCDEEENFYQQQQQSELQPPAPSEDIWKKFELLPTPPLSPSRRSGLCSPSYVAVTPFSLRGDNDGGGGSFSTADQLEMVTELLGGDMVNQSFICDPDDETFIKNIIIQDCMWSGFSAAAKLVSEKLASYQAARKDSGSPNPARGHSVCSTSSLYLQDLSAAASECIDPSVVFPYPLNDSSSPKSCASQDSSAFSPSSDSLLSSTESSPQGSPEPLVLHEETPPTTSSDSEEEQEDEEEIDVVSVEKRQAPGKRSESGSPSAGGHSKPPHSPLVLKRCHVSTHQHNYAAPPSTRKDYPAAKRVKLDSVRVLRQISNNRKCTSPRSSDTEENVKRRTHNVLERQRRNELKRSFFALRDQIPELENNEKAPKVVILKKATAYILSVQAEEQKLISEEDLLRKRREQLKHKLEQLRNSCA

Biological target: HA-MYC (UniProt P01106)
Assay: co-IP; HEK293T cells transiently transfected with FLAG-USP13 and HA-MYC; lysis buffer 50 mM Tris pH 8.0, 150 mM NaCl, 1 mM EDTA, 0.1% NP-40; Protein G agarose beads, 1 µg of the specific antibody, 500 µg of lysate; western blot

B1: FLAG-USP13 (enzyme, UniProt Q92995 1-863)
chain: MQRRGALFGMPGGSGGRKMAAGDIGELLVPHMPTIRVPRSGDRVYKNECAFSYDSPNSEGGLYVCMNTFLAFGREHVERHFRKTGQSVYMHLKRHVREKVRGASGGALPKRRNSKIFLDLDTDDDLNSDDYEYEDEAKLVIFPDHYEIALPNIEELPALVTIACDAVLSSKSPYRKQDPDTWENELPVSKYANNLTQLDNGVRIPPSGWKCARCDLRENLWLNLTDGSVLCGKWFFDSSGGNGHALEHYRDMGYPLAVKLGTITPDGADVYSFQEEEPVLDPHLAKHLAHFGIDMLHMHGTENGLQDNDIKLRVSEWEVIQESGTKLKPMYGPGYTGLKNLGNSCYLSSVMQAIFSIPEFQRAYVGNLPRIFDYSPLDPTQDFNTQMTKLGHGLLSGQYSKPPVKSELIEQVMKEEHKPQQNGISPRMFKAFVSKSHPEFSSNRQQDAQEFFLHLVNLVERNRIGSENPSDVFRFLVEERIQCCQTRKVRYTERVDYLMQLPVAMEAATNKDELIAYELTRREAEANRRPLPELVRAKIPFSACLQAFSEPENVDDFWSSALQAKSAGVKTSRFASFPEYLVVQIKKFTFGLDWVPKKFDVSIDMPDLLDINHLRARGLQPGEEELPDISPPIVIPDDSKDRLMNQLIDPSDIDESSVMQLAEMGFPLEACRKAVYFTGNMGAEVAFNWIIVHMEEPDFAEPLTMPGYGGAASAGASVFGASGLDNQPPEEIVAIITSMGFQRNQAIQALRATNNNLERALDWIFSHPEFEEDSDFVIEMENNANANIISEAKPEGPRVKDGSGTYELFAFISHMGTSTMSGHYICHIKKEGRWVIYNDHKVCASERPPKDLGYMYFYRRIPS
- binding: binds
